Article PMC7056711
Results are given in words; binding and its absence hold for the method and conditions named. Binding seen in cells or lysates may run through a third protein. Some results given as binding are weak or reduced against the parent protein; the word gives no strength. For some assays here: Where a sequence is shown, tags or fusion partners need not be part of it.

The chains behind the UniProt entries cited, without tags or fusion partners.
UniProt Q9Y5K6: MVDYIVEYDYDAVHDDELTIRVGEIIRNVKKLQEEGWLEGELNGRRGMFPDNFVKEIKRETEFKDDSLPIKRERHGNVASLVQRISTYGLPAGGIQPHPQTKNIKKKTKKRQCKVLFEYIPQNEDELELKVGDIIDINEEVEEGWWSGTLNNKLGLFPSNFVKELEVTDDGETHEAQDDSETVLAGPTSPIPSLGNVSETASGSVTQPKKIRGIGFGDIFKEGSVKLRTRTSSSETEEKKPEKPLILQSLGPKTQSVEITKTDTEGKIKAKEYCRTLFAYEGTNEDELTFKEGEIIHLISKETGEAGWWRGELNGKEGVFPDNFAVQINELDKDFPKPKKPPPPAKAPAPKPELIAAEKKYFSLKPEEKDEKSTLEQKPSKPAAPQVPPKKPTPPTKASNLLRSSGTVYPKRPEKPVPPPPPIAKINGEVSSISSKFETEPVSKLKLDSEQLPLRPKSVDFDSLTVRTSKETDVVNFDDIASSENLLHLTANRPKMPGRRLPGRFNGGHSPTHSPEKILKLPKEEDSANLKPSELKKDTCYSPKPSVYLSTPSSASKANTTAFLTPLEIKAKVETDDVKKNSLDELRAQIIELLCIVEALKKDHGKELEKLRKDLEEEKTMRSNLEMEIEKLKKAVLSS
UniProt Q01968: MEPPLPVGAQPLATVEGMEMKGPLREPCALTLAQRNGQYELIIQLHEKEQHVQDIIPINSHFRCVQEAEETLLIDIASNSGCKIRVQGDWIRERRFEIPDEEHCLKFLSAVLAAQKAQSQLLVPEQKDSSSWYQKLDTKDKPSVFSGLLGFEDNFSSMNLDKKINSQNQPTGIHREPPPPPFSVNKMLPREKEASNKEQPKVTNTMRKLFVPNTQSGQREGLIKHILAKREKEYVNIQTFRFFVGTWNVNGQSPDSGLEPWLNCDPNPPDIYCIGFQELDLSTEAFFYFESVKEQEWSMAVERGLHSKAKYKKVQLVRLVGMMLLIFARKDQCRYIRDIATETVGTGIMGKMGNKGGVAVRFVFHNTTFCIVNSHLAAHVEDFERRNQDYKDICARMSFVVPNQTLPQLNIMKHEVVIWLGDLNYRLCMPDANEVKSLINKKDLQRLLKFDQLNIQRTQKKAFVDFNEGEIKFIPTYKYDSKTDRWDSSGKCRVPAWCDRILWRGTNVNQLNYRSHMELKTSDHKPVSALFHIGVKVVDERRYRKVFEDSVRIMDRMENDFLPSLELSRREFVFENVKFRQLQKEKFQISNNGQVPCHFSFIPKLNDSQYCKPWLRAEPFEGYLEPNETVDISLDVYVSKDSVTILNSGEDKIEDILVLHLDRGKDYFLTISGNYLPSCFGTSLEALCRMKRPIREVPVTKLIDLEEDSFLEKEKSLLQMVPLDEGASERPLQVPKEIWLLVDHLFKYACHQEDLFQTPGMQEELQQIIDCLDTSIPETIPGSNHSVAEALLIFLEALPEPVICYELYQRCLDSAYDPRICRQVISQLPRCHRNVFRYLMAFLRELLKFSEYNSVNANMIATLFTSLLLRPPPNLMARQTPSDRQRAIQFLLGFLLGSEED

Key:
[1] = target: T1, Glutathione S-transferase (GST)-tagged recombinant IPIP27A (UniProt Q8N4B1); test: pull-down; GST-IPIP27A coupled to glutathione-sepharose beads, incubated with fresh total cell lysate of podocytes at 4 °C for 3 h, immunoblot with anti-OCRL or anti-CD2AP; only the target purified
T1 sequence: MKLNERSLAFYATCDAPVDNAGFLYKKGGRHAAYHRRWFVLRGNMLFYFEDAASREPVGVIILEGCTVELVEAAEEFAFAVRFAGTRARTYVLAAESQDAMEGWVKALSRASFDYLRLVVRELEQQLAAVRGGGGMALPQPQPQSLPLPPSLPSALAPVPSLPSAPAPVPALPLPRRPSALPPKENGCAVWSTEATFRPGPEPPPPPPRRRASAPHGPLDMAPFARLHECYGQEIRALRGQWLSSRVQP

[2] = target: CD2AP (human (endogenous in conditionally immortalised human podocytes)) (UniProt Q9Y5K6); test: co-IP; anti-OCRL or anti-CD2AP antibody on Protein-G Dynabeads, total cell lysate of cultured human podocytes (HMNT buffer: 20 mM HEPES pH 7.4, 5 mM MgCl2, 0.1 M NaCl, 0.5% Triton X-100), 4 °C for 4 h, immunoblot

- binding [1]: binds
Substance: OCRL (from UniProt Q01968 1-901)
- binding [2]: binds
